Binding data for 3 molecules are collected here from article doi:10.1101/2025.10.23.684158.

By UniProt entry, the sequences of proteins in these tests, tags left out.
UniProt Q8CIG8: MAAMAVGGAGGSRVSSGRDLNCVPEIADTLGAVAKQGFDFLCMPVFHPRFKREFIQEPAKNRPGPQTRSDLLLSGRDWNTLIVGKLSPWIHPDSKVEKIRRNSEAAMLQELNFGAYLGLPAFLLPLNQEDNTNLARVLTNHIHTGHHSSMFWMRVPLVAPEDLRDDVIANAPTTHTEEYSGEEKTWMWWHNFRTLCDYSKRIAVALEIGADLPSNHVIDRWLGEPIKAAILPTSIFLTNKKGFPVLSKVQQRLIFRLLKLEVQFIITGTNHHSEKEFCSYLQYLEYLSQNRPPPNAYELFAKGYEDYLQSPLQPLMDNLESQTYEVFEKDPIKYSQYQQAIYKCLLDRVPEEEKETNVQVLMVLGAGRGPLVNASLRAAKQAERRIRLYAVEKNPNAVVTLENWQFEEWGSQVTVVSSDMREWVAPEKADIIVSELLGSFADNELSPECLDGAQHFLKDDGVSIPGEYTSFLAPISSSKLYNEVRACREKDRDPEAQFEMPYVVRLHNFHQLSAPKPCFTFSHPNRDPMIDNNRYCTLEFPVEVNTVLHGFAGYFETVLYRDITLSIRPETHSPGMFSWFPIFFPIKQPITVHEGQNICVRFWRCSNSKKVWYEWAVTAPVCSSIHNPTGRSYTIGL
UniProt P09528: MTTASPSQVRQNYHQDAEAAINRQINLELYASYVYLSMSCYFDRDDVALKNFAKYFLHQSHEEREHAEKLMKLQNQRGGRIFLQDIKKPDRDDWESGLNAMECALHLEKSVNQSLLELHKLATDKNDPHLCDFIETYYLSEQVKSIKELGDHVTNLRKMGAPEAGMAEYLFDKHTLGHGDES

Common to all, as to assay: co-IP
In assay [1] the target is T1, NCOA4-HA (pcDNA 3.1-NCOA4-HA OE) (mouse) (UniProt Q5U4H9).
T1 sequence: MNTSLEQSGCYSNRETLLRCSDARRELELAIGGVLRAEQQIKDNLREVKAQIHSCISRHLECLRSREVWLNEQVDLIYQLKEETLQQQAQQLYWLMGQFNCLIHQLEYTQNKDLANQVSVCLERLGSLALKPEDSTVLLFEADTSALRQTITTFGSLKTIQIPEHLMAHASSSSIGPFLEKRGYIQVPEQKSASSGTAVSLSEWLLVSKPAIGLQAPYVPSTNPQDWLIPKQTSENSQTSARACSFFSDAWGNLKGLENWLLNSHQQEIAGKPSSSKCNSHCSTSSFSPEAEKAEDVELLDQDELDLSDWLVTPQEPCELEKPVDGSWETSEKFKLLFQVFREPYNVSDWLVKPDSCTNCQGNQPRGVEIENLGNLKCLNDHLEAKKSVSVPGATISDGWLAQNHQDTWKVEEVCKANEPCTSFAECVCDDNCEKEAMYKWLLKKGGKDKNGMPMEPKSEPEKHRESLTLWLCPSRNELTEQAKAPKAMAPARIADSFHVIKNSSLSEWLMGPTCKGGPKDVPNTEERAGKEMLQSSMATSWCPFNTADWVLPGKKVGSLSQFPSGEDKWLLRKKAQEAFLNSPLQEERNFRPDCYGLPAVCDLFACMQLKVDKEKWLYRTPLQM

For assay [2], the target named is T2, nuclear receptor coactivator 4 (NCOA4) (mouse (endogenous in murine peritoneal macrophages)) (UniProt Q5U4H9).
T2 sequence: T1 sequence

In assay [3] the target is protein arginine methyltransferase 5 (PRMT5) (mouse (endogenous in murine macrophages)) (UniProt Q8CIG8).

Results are given in words; binding and its absence hold for the method and conditions named. Binding seen in cells or lysates may run through a third protein. Some results given as binding are weak or reduced against the parent protein; the word gives no strength. For some of these results: Where a sequence is shown, tags or fusion partners need not be part of it.

In the case of “ferritin heavy chain (from UniProt P09528 1-182)”, the binding entry in assay [1] and in assay [2] was “binds” throughout.

B1: nuclear receptor coactivator 4 (NCOA4) (protein, UniProt Q5U4H9 1-625)
chain: T1 sequence
Take B1: the binding entry in assay [3] is “binds”.

B2: vitamin D3 receptor (receptor, UniProt P48281 1-422)
chain: MEAMAASTSLPDPGDFDRNVPRICGVCGDRATGFHFNAMTCEGCKGFFRRSMKRKALFTCPFNGDCRITKDNRRHCQACRLKRCVDIGMMKEFILTDEEVQRKREMIMKRKEEEALKDSLRPKLSEEQQHIIAILLDAHHKTYDPTYADFRDFRPPIRADVSTGSYSPRPTLSFSGDSSSNSDLYTPSLDMMEPASFSTMDLNEEGSDDPSVTLDLSPLSMLPHLADLVSYSIQKVIGFAKMIPGFRDLTSDDQIVLLKSSAIEVIMLRSNQSFTLDDMSWDCGSQDYKYDITDVSRAGHTLELIEPLIKFQVGLKKLNLHEEEHVLLMAICIVSPDRPGVQDAKLVEAIQDRLSNTLQTYIRCRHPPPGSHQLYAKMIQKLADLRSLNEEHSKQYRSLSFQPENSMKLTPLVLEVFGNEIS
With B2, the binding result in assay [2] is given as “binds”.
